In the supplement of paper PMC7661543:
The effect of the compound repeats well; differences between the knockouts mostly do not.

Tested on: MDA-MB-231
Test: relative cell number vs DMSO control (72 h) (% of DMSO); higher = less growth inhibition (more cells)
Protocol: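 QMAP-Seq: a pool of 5 breast cancer cell lines (ZR-75-1, SKBR3, HCC-38, MDA-MB-231, BT-20), each carrying 12 doxycycline-inducible Cas9 sgRNA perturbations (11 knockouts plus non-targeting sgNT), was treated with compounds for 72 h at four 10-fold doses (10 nM-10 uM or 1 nM-1 uM range). Barcodes were amplified and sequenced, and cell number was interpolated from 293T spike-in standard curves. The result is expressed as % of the median of DMSO wells. Two biological replicates.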

CC(C)c1cc(-c2n[nH]c(=O)n2-c2ccc3c(ccn3C)c2)c(O)cc1O [Ganetespib]
Details | relative cell number
sgRNA knockout: sgATF3, 1 nM | 97.4
sgRNA knockout: sgATF3, 10 nM | 113
sgRNA knockout: sgATF3, 100 nM | 9.73
sgRNA knockout: sgATF3, 1000 nM | 9.02
sgRNA knockout: sgATF4, 1 nM | 94.6
sgRNA knockout: sgATF4, 10 nM | 115
sgRNA knockout: sgATF4, 100 nM | 17.7
sgRNA knockout: sgATF4, 1000 nM | 14.3
sgRNA knockout: sgATF6, 1 nM | 97.7
sgRNA knockout: sgATF6, 10 nM | 99.4
sgRNA knockout: sgATF6, 100 nM | 15.5
sgRNA knockout: sgATF6, 1000 nM | 7.93
sgRNA knockout: sgATG7, 1 nM | 91.6
sgRNA knockout: sgATG7, 10 nM | 92.3
sgRNA knockout: sgATG7, 100 nM | 10.4
sgRNA knockout: sgATG7, 1000 nM | 12
sgRNA knockout: sgERN1, 1 nM | 90.3
sgRNA knockout: sgERN1, 10 nM | 89.8
sgRNA knockout: sgERN1, 100 nM | 11.7
sgRNA knockout: sgERN1, 1000 nM | 16.2
sgRNA knockout: sgHSF1, 1 nM | 103
sgRNA knockout: sgHSF1, 10 nM | 85.2
sgRNA knockout: sgHSF1, 100 nM | 15.6
sgRNA knockout: sgHSF1, 1000 nM | 14.5
sgRNA knockout: sgHSF2, 1 nM | 72.6
sgRNA knockout: sgHSF2, 10 nM | 101
sgRNA knockout: sgHSF2, 100 nM | 15.3
sgRNA knockout: sgHSF2, 1000 nM | 13.4
sgRNA knockout: sgKEAP1, 1 nM | 89.2
sgRNA knockout: sgKEAP1, 10 nM | 83.8
sgRNA knockout: sgKEAP1, 100 nM | 15.5
sgRNA knockout: sgKEAP1, 1000 nM | 14.6
sgRNA knockout: sgNFE2L2, 1 nM | 102
sgRNA knockout: sgNFE2L2, 10 nM | 107.1
sgRNA knockout: sgNFE2L2, 100 nM | 14.1
sgRNA knockout: sgNFE2L2, 1000 nM | 12.2
sgRNA knockout: sgSLC35F2, 1 nM | 107
sgRNA knockout: sgSLC35F2, 10 nM | 102
sgRNA knockout: sgSLC35F2, 100 nM | 9.53
sgRNA knockout: sgSLC35F2, 1000 nM | 14.5
sgRNA knockout: sgXBP1, 1 nM | 97.2
sgRNA knockout: sgXBP1, 10 nM | 103
sgRNA knockout: sgXBP1, 100 nM | 13.7
sgRNA knockout: sgXBP1, 1000 nM | 10.8

N#Cc1ccc(C(c2ccc(C#N)cc2)n2cncn2)cc1 [Letrozole]
Details | relative cell number
sgRNA knockout: sgATF3, 1 nM | 110
sgRNA knockout: sgATF3, 10 nM | 94.2
sgRNA knockout: sgATF3, 100 nM | 110
sgRNA knockout: sgATF3, 1000 nM | 98.9
sgRNA knockout: sgATF4, 1 nM | 124
sgRNA knockout: sgATF4, 10 nM | 109
sgRNA knockout: sgATF4, 100 nM | 74.6
sgRNA knockout: sgATF4, 1000 nM | 81
sgRNA knockout: sgATF6, 1 nM | 84.9
sgRNA knockout: sgATF6, 10 nM | 58.9
sgRNA knockout: sgATF6, 100 nM | 80.7
sgRNA knockout: sgATF6, 1000 nM | 93.9
sgRNA knockout: sgATG7, 1 nM | 86.5
sgRNA knockout: sgATG7, 10 nM | 67.3
sgRNA knockout: sgATG7, 100 nM | 86.2
sgRNA knockout: sgATG7, 1000 nM | 94.4
sgRNA knockout: sgERN1, 1 nM | 97.8
sgRNA knockout: sgERN1, 10 nM | 110
sgRNA knockout: sgERN1, 100 nM | 73.3
sgRNA knockout: sgERN1, 1000 nM | 129
sgRNA knockout: sgHSF1, 1 nM | 102
sgRNA knockout: sgHSF1, 10 nM | 97.3
sgRNA knockout: sgHSF1, 100 nM | 77.5
sgRNA knockout: sgHSF1, 1000 nM | 110
sgRNA knockout: sgHSF2, 1 nM | 107
sgRNA knockout: sgHSF2, 10 nM | 69
sgRNA knockout: sgHSF2, 100 nM | 122
sgRNA knockout: sgHSF2, 1000 nM | 82.9
sgRNA knockout: sgKEAP1, 1 nM | 97.9
sgRNA knockout: sgKEAP1, 10 nM | 95.4
sgRNA knockout: sgKEAP1, 100 nM | 111
sgRNA knockout: sgKEAP1, 1000 nM | 108
sgRNA knockout: sgNFE2L2, 1 nM | 84.8
sgRNA knockout: sgNFE2L2, 10 nM | 67.7
sgRNA knockout: sgNFE2L2, 100 nM | 115
sgRNA knockout: sgNFE2L2, 1000 nM | 109
sgRNA knockout: sgSLC35F2, 1 nM | 83
sgRNA knockout: sgSLC35F2, 10 nM | 81.9
sgRNA knockout: sgSLC35F2, 100 nM | 90.8
sgRNA knockout: sgSLC35F2, 1000 nM | 94.6
sgRNA knockout: sgXBP1, 1 nM | 71.7
sgRNA knockout: sgXBP1, 10 nM | 96
sgRNA knockout: sgXBP1, 100 nM | 92.7
sgRNA knockout: sgXBP1, 1000 nM | 99.2

CC[C@H](Nc1ncnc2[nH]cnc12)c1nc2cccc(F)c2c(=O)n1-c1ccccc1 [CAL101]
Details | relative cell number
sgRNA knockout: sgATF3, 10 nM | 91.7
sgRNA knockout: sgATF3, 100 nM | 95.2
sgRNA knockout: sgATF3, 1000 nM | 112
sgRNA knockout: sgATF3, 10000 nM | 92.9
sgRNA knockout: sgATF4, 10 nM | 92.1
sgRNA knockout: sgATF4, 100 nM | 111
sgRNA knockout: sgATF4, 1000 nM | 99.3
sgRNA knockout: sgATF4, 10000 nM | 115
sgRNA knockout: sgATF6, 10 nM | 84
sgRNA knockout: sgATF6, 100 nM | 111
sgRNA knockout: sgATF6, 1000 nM | 99.09
sgRNA knockout: sgATF6, 10000 nM | 99.4
sgRNA knockout: sgATG7, 10 nM | 88.8
sgRNA knockout: sgATG7, 100 nM | 81.5
sgRNA knockout: sgATG7, 1000 nM | 94.5
sgRNA knockout: sgATG7, 10000 nM | 89.6
sgRNA knockout: sgERN1, 10 nM | 114
sgRNA knockout: sgERN1, 100 nM | 109
sgRNA knockout: sgERN1, 1000 nM | 107
sgRNA knockout: sgERN1, 10000 nM | 96.5
sgRNA knockout: sgHSF1, 10 nM | 84.9
sgRNA knockout: sgHSF1, 100 nM | 86.2
sgRNA knockout: sgHSF1, 1000 nM | 112.3
sgRNA knockout: sgHSF1, 10000 nM | 98.6
sgRNA knockout: sgHSF2, 10 nM | 117
sgRNA knockout: sgHSF2, 100 nM | 89.3
sgRNA knockout: sgHSF2, 1000 nM | 76.8
sgRNA knockout: sgHSF2, 10000 nM | 105
sgRNA knockout: sgKEAP1, 10 nM | 96
sgRNA knockout: sgKEAP1, 100 nM | 71.2
sgRNA knockout: sgKEAP1, 1000 nM | 99
sgRNA knockout: sgKEAP1, 10000 nM | 98.9
sgRNA knockout: sgNFE2L2, 10 nM | 75.7
sgRNA knockout: sgNFE2L2, 100 nM | 94
sgRNA knockout: sgNFE2L2, 1000 nM | 95.4
sgRNA knockout: sgNFE2L2, 10000 nM | 98
sgRNA knockout: sgSLC35F2, 10 nM | 102
sgRNA knockout: sgSLC35F2, 100 nM | 81.6
sgRNA knockout: sgSLC35F2, 1000 nM | 97.8
sgRNA knockout: sgSLC35F2, 10000 nM | 108
sgRNA knockout: sgXBP1, 10 nM | 103
sgRNA knockout: sgXBP1, 100 nM | 87.3
sgRNA knockout: sgXBP1, 1000 nM | 91.5
sgRNA knockout: sgXBP1, 10000 nM | 102
